Measured values reported in publication doi:10.1101/2024.04.20.590343.
These are yes or no findings as the source states them, for the method shown. Some binding calls cover weakened binding; strength is not graded here.

Molecular target: T1, ScPho2 Pho4int (aa 112–407) (S. cerevisiae) (UniProt P07269)
T1 sequence: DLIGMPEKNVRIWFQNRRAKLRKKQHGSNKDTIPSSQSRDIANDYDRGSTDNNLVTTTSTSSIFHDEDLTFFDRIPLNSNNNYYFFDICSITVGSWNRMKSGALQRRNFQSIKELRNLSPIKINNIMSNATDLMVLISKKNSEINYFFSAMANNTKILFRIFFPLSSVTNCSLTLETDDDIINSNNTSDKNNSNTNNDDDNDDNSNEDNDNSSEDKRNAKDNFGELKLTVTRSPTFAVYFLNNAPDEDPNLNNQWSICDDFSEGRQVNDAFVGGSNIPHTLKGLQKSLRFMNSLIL
Test: two-hybrid; Gal4 AD and Gal4 DBD fusions (pGAD-C3, pGBD-C3) co-transformed into a gal4Δ gal80Δ S. cerevisiae strain, selected on SD -leu -trp; patched, grown at 30°C for 24 hours, replica plated onto SD -leu -trp -ade -his; imaged after 45–50 hours; two independent transformants

binding: binds
B1: ScPho4ΔDBD (aa 2–250) (domain or fragment, UniProt P07270 2-250)
chain: GRTTSEGIHGFVDDLEPKSSILDKVGDFITVNTKRHDGREDFNEQNDELNSQENHNSSENGNENENEQDSLALDDLDRAFELVEGMDMDWMMPSHAHHSPATTATIKPRLLYSPLIHTQSAVPVTISPNLVATATSTTSANKVTKNKSNSSPYLNKRRGKPGPDSATSLFELPDSVIPTPKPKPKPKQYPKVILPSNSTRRVSPVTAKTSSSAEGVVVASESPVIAPHGSSHSRSLSKRRSSGALVDDD
